According to PMC9481976:
Where two headings read alike, the source gives them in different places. No constants are given. Whether binding was seen depends on the method and setting. Binding seen in cells or lysates may run through a third protein. Here binding means that the protein was enriched with, or labelled near, the bait; the list need not be complete. Where a sequence is shown, tags or fusion partners need not be part of it.

Sequences of proteins named here, by UniProt entry; tags and fusion partners are left off.
UniProt Q96SN8: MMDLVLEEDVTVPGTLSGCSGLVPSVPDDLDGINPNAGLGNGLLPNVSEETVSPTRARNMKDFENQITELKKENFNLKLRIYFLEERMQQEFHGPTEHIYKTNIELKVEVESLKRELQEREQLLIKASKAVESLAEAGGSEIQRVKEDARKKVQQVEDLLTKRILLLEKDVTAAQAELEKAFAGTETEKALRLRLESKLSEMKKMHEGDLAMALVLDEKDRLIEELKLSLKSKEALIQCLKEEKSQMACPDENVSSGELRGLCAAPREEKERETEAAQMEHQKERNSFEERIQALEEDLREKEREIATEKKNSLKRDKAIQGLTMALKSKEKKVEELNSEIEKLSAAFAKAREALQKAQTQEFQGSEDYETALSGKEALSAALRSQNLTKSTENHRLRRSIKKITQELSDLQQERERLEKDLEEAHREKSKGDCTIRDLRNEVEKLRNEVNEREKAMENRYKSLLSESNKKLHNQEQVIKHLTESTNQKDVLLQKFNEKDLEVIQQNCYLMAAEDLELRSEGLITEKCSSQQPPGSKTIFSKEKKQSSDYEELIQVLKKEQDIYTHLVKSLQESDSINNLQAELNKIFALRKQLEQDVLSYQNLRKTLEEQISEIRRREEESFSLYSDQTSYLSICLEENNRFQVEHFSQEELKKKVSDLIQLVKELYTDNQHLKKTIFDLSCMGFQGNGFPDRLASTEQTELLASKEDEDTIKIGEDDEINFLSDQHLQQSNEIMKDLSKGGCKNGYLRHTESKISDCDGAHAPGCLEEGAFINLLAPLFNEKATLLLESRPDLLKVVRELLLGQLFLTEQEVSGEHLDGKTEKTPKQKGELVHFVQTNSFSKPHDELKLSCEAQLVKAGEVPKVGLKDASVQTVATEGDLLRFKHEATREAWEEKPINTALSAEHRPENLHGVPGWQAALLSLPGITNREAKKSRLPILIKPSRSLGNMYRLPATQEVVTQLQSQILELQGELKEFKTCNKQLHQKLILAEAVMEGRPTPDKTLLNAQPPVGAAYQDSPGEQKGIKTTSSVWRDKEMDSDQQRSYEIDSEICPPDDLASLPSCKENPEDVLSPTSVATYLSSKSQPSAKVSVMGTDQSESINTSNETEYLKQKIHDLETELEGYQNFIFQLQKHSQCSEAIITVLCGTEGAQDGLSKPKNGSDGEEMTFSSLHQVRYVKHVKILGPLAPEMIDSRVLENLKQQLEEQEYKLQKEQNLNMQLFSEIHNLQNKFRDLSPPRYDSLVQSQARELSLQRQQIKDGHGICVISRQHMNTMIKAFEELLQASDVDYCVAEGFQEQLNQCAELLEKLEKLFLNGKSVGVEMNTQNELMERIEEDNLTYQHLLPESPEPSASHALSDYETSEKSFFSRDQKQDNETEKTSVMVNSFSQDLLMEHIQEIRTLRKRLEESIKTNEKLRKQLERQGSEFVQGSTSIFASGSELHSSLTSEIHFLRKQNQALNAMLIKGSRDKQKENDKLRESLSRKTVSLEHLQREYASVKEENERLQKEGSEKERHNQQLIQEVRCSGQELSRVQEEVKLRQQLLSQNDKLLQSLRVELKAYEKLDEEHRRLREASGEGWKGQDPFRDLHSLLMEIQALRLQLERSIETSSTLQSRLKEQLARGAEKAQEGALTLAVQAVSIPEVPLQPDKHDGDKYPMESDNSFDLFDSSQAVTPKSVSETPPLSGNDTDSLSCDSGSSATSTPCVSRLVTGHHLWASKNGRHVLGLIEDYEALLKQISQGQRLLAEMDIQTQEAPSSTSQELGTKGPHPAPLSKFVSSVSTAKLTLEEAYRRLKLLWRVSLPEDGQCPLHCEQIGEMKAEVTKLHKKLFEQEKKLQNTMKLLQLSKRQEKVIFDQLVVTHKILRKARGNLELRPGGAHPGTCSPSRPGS
UniProt Q96RT7: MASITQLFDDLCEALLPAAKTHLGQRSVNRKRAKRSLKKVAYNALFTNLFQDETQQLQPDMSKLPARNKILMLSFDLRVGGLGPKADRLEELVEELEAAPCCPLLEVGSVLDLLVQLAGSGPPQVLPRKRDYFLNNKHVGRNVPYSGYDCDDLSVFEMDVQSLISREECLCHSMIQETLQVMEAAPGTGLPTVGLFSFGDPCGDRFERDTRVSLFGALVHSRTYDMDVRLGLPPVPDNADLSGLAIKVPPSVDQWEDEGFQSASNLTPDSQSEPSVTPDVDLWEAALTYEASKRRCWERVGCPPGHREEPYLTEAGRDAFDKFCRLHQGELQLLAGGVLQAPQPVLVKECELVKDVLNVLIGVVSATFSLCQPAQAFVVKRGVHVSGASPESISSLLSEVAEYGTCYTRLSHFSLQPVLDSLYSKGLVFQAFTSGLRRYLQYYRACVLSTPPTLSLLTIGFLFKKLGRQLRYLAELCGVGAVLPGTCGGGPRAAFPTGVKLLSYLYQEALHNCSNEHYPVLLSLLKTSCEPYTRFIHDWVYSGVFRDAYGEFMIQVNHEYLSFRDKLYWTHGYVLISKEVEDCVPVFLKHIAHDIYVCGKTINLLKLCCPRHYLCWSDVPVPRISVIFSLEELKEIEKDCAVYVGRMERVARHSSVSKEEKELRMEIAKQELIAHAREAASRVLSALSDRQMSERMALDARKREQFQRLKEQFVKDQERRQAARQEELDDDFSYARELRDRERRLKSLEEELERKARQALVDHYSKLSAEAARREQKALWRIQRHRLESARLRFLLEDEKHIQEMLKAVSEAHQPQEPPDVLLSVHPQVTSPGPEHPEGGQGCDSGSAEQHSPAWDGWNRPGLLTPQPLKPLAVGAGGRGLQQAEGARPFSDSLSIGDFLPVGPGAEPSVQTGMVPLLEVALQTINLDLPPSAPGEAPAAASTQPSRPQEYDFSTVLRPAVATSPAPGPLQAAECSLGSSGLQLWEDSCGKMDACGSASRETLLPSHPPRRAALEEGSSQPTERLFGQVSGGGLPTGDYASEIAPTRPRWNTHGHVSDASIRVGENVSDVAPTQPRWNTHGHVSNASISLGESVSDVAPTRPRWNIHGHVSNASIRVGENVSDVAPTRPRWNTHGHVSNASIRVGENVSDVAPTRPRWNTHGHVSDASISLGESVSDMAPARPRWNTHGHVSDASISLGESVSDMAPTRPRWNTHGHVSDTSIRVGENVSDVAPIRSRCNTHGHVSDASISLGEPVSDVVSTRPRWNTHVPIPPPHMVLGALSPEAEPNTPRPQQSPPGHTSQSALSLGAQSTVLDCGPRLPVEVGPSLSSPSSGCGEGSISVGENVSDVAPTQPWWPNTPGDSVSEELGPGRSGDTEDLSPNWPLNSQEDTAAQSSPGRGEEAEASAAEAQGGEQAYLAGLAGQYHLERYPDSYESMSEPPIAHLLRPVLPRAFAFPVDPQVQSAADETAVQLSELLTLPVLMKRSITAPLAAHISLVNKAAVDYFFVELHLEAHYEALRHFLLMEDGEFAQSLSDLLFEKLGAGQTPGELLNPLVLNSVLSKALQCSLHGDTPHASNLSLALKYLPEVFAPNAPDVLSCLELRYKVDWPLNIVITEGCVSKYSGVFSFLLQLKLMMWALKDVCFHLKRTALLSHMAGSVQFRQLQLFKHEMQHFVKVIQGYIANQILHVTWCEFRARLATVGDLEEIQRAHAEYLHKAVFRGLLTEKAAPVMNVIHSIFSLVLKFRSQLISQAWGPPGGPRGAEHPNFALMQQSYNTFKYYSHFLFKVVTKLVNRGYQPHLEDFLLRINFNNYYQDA
UniProt Q8N4C6: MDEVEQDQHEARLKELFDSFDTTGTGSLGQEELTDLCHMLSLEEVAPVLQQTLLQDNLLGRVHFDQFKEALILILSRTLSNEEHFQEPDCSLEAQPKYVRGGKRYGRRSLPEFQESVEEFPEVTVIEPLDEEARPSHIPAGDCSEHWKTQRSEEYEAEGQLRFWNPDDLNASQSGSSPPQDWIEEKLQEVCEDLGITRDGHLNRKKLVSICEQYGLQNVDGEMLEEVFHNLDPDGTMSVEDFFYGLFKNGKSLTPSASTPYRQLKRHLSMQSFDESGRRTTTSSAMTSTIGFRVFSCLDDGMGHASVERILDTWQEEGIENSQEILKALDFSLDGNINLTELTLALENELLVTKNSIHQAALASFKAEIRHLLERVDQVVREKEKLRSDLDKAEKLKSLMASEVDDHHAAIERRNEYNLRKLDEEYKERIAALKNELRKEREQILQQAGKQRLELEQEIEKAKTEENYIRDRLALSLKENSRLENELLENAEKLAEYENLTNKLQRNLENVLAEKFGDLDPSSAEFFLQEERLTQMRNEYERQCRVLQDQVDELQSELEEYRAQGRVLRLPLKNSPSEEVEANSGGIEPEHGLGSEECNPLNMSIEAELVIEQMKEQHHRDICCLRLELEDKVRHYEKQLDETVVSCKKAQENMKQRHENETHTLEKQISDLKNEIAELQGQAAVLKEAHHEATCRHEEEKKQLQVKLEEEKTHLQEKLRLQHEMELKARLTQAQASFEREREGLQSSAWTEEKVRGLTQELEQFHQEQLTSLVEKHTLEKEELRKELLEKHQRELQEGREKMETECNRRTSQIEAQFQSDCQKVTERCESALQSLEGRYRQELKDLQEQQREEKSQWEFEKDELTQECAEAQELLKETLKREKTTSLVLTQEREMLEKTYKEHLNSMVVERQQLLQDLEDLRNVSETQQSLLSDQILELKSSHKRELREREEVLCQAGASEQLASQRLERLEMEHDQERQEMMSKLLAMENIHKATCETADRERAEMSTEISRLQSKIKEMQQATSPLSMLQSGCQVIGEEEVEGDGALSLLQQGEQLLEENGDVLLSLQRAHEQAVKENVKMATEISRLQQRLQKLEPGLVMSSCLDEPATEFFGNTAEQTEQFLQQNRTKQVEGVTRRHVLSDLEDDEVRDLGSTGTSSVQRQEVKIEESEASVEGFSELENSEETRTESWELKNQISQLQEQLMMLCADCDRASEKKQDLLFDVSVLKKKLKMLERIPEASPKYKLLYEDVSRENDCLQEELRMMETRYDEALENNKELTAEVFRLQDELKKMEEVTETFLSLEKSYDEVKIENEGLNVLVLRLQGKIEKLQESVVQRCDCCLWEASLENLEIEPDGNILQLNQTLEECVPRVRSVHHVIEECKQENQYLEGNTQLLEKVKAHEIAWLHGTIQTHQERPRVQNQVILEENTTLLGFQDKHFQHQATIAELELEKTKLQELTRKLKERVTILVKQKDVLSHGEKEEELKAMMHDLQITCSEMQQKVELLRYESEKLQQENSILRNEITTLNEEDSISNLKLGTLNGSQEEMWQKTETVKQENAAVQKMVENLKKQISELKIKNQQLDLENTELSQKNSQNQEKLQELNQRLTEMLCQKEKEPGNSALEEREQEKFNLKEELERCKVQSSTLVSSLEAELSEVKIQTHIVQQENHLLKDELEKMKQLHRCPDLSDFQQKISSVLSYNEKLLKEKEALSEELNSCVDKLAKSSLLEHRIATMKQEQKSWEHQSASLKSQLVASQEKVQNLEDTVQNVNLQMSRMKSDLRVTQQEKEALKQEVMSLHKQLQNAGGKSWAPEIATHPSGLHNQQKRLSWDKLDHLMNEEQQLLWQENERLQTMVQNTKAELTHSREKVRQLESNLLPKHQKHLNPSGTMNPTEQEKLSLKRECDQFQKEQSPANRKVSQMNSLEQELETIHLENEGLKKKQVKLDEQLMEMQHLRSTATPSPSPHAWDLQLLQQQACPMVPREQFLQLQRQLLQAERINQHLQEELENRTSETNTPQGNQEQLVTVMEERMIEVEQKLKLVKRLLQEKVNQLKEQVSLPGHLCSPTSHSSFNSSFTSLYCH
UniProt P23258: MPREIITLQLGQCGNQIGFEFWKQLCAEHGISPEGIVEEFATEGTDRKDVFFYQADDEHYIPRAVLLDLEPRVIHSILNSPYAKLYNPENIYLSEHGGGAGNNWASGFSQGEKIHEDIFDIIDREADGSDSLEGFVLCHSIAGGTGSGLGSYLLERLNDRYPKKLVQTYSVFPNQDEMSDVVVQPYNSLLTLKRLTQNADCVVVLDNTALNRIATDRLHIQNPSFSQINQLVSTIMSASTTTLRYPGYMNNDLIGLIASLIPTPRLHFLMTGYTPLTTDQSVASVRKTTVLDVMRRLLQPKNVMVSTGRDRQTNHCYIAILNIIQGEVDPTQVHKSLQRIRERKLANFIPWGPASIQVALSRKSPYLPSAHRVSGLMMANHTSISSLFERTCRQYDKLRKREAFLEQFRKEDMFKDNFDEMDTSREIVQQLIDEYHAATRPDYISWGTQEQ

B1: HAUS1 (protein, UniProt Q96CS2 1-278)
chain: MEPQEERETQVAAWLKKIFGDHPIPQYEVNPRTTEILHHLSERNRVRDRDVYLVIEDLKQKASEYESEAKYLQDLLMESVNFSPANLSSTGSRYLNALVDSAVALETKDTSLASFIPAVNDLTSDLFRTKSKSEEIKIELEKLEKNLTATLVLEKCLQEDVKKAELHLSTERAKVDNRRQNMDFLKAKSEEFRFGIKAAEEQLSARGMDASLSHQSLVALSEKLARLKQQTIPLKKKLESYLDLMPNPSLAQVKIEEAKRELDSIEAELTRRVDMMEL
B2: HAUS4 (protein, UniProt Q9H6D7 1-363)
chain: MASGDFCSPGEGMEILQQVCSKQLPPCNLSKEDLLQNPYFSKLLLNLSQHVDESGLSLTLAKEQAQAWKEVRLHKTTWLRSEILHRVIQELLVDYYVKIQDTNVTSEDKKFHETLEQRLLVTELMRLLGPSQEREIPPLLGLEKADLLELMPLSEDFVWMRARLQQEVEEQLKKKCFTLLCYYDPNSDADSETVKAAKVWKLAEVLVGEQQQCQDAKSQQKEQMLLLEKKSAAYSQVLLRCLTLLQRLLQEHRLKTQSELDRINAQYLEVKCGAMILKLRMEELKILSDTYTVEKVEVHRLIRDRLEGAIHLQEQDMENSRQVLNSYEVLGEEFDRLVKEYTVLKQATENKRWALQEFSKVYR
B3: CEP131 (protein, UniProt Q9UPN4 1-1083)
chain: MKGTRAIGSVPERSPAGVDLSLTGLPPPVSRRPGSAATTKPIVRSVSVVTGSEQKRKVLEATGPGGSQAINNLRRSNSTTQVSQPRSGSPRPTEPTDFLMLFEGSPSGKKRPASLSTAPSEKGATWNVLDDQPRGFTLPSNARSSSALDSPAGPRRKECTVALAPNFTANNRSNKGAVGNCVTTMVHNRYTPSERAPPLKSSNQTAPSLNNIIKAATCEGSESSGFGKLPKNVSSATHSARNNTGGSTGLPRRKEVTEEEAERFIHQVNQATVTIQRWYRHQVQRRGAGAARLEHLLQAKREEQRQRSGEGTLLDLHQQKEAARRKAREEKARQARRAAIQELQQKRALRAQKASTAERGPPENPRETRVPGMRQPAQELSPTPGGTAHQALKANNTGGGLPAAGPGDRCLPTSDSSPEPQQPPEDRTQDVLAQDAAGDNLEMMAPSRGSAKSRGPLEELLHTLQLLEKEPDVLPRPRTHHRGRYAWASEVTTEDDASSLTADNLEKFGKLSAFPEPPEDGTLLSEAKLQSIMSFLDEMEKSGQDQLDSQQEGWVPEAGPGPLELGSEVSTSVMRLKLEVEEKKQAMLLLQRALAQQRDLTARRVKETEKALSRQLQRQREHYEATIQRHLAFIDQLIEDKKVLSEKCEAVVAELKQEDQRCTERVAQAQAQHELEIKKLKELMSATEKARREKWISEKTKKIKEVTVRGLEPEIQKLIARHKQEVRRLKSLHEAELLQSDERASQRCLRQAEELREQLEREKEALGQQERERARQRFQQHLEQEQWALQQQRQRLYSEVAEERERLGQQAARQRAELEELRQQLEESSSALTRALRAEFEKGREEQERRHQMELNTLKQQLELERQAWEAGRTRKEEAWLLNREQELREEIRKGRDKEIELVIHRLEADMALAKEESEKAAESRIKRLRDKYEAELSELEQSERKLQERCSELKGQLGEAEGENLRLQGLVRQKERALEDAQAVNEQLSSERSNLAQVIRQEFEDRLAASEEETRQAKAELATLQARQQLELEEVHRRVKTALARKEEAVSSLRTQHEAAVKRADHLEELLEQHRRPTPSTK

Columns and labels:
Test in all cases: affinity purification with mass spectrometry; streptavidin pull-down (M-280 Streptavidin Dynabeads) of biotinylated GFP-tagged CFAP53 co-expressed with BirA from HEK293T lysates; lysis in 20 mM Tris pH 7.5, 150 mM NaCl, 1 mM MgCl2, 1% Triton X-100; 120 min at 4°C; five washes with 20 mM Tris pH 7.5, 150 mM NaCl, 0.1% Triton X-100; BirA alone as negative control; MS scores of both baits combined, hits filtered by SAINT and fold change
[1] = target: T1, bioGFP-CFAP53 (human CFAP53 with N-terminal biotinylated GFP) (human) (UniProt Q96M91)
T1 sequence (chain, biotin on the BirA substrate linker (biotin ligase BirA co-expressed)): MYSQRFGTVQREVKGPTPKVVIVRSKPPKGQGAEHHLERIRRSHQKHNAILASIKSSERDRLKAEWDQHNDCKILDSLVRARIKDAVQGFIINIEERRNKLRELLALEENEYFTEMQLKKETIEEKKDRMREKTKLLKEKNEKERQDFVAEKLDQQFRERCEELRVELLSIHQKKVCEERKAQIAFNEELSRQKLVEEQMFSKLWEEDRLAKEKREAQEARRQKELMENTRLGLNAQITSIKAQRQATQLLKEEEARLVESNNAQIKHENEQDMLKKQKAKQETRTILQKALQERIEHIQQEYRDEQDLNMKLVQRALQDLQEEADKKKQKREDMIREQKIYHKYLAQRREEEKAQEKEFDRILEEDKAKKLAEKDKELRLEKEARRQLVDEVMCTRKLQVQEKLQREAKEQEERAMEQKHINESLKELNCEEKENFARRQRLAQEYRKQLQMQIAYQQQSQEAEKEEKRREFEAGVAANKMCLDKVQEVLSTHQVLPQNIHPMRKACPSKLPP

[2] = target: T2, CFAP53-bioGFP (human CFAP53 with C-terminal biotinylated GFP) (human) (UniProt Q96M91)
T2 sequence (chain, biotin on the BirA substrate linker (biotin ligase BirA co-expressed)): T1 sequence (chain, biotin on the BirA substrate linker (biotin ligase BirA co-expressed))

[3] = target: T1, bioGFP-CFAP53 (human CFAP53 with N-terminal biotinylated GFP) (human); remark: listed apart in the source
[4] = target: T2, CFAP53-bioGFP (human CFAP53 with C-terminal biotinylated GFP) (human); remark: listed apart in the source

Row | Molecule | binding [1] | binding [2] | binding [3] | binding [4]
1 | CDK5RAP2 (from UniProt Q96SN8 1-1893) | binds | binds | – | –
2 | CEP290 (from UniProt O15078 1-2479) | binds | binds | – | –
3 | GPC6 (from UniProt Q96RT7 1-1819) | binds | binds | – | –
4 | NIN (from UniProt Q8N4C6 1-2090) | binds | binds | – | –
5 | PCM1 (from UniProt Q15154 1-2024) | binds | binds | – | –
6 | kinase NME7 (from UniProt Q9Y5B8 1-376) | binds | binds | – | –
7 | γ-tubulin (TUBG1) (from UniProt P23258 1-451) | binds | binds | – | –
8 | B1 | – | – | binds | binds
9 | B2 | – | – | binds | binds
10 | B3 | – | – | binds | binds
